Reference: PubChem BioAssay AID720504 (National Center for Advancing Translational Sciences (NCATS), 2013)
Out of some 360,000 compounds screened, about 10,000 (2.8%) were called active. Inconclusive means that the source gave no clear call. Such entries were picked first, then a sample of the others. Calls come from the whole dose curve; as a rule, active = well fitted inhibition curve with a large enough effect; inconclusive = small, poorly fitted or top-dose-only effect; inactive = flat fitted curve, though single readings scatter. Where the call is inconclusive, the potency comes from a doubtful curve fit.

Amino acid sequences for entries named in this document (tags omitted).
UniProt P53350, whole entry, looked up: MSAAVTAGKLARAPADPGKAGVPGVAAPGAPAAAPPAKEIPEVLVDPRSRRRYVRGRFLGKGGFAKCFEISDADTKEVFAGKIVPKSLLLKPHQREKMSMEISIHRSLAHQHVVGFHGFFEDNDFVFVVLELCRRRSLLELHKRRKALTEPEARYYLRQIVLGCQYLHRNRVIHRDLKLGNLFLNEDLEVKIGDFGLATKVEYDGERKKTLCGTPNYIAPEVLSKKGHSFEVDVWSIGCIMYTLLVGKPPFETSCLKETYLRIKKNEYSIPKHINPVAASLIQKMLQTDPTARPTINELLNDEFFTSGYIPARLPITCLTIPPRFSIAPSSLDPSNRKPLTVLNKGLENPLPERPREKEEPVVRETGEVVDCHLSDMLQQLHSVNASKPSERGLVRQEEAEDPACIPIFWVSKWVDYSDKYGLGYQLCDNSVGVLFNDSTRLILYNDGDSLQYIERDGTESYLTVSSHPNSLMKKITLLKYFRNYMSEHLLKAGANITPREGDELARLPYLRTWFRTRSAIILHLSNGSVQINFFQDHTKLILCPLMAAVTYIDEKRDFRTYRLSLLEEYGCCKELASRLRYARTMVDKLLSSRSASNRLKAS

What follows are compounds tested against Serine/threonine-protein kinase PLK1 (Homo sapiens) (UniProt P53350) (assay: qHTS for Inhibitors of PLK1-PDB (polo-like kinase 1 - polo-box domain): Primary Screen). Conditions: Plk1 PBD binding of FITC phosphopeptide, fluorescence polarization.
% is set by controls: 0 for no effect and ±100 for the full control effect; potency is the fitted concentration of half-maximal effect.
Note: nearly all actives have a fitted effect of over 65% in size.
Throughout, for max response, negative = inhibition: series mostly up to about 57 µM.

| SMILES | max response, negative = inhibition | Potency |
| --- | --- | --- |
| O=C(NCc1cccc(F)c1)c1ccc(N2C(=O)Cn3c(cc4sccc43)C2=O)cc1 | inconclusive: -37.5% [inhibitor] |  |
| CC(=O)c1ccc(N2CCN(C(=O)C3CCN(S(=O)(=O)c4ccc(F)cc4)CC3)CC2)cc1 | inactive: 0.427% |  |
| Cc1ccc(N=Cc2nc(/C=C/c3cccc([N+](=O)[O-])c3)oc2O)cc1 | inactive: -7.36% |  |
| O=S(=O)(Nc1ccc(O)c(Sc2nc3ccccc3s2)c1)c1cccc2ccccc12 | inactive: 0.499% |  |
| COc1ccc2cc(C(=O)C3CCCN(Cc4cnc(C)s4)C3)ccc2c1 (configuration not stated) | inconclusive: -31% [inhibitor] |  |
| COc1cc2c(cc1OC)C(C(=O)O)C(c1cc(Br)c(O)c(OC)c1)N(C)C2=O (configuration not stated) | inactive: 1.11% |  |
| O=C(Nc1ccc(O)cc1)c1ccc(NC(=O)C2CCCO2)cc1 (configuration not stated) | inactive: -7.7% |  |
| Cc1ccc(-c2cc(C(=O)NCc3ccccn3)c3ccccc3n2)cc1C |  | active: 23.8 µM |
| COc1nc(N)nc(NC(=O)c2cccs2)c1N=O |  | inconclusive: 21.2 µM [inhibitor, partial curve] |
| Cc1cccc(NC(=O)CCS(=O)(=O)c2ccc3c(c2)NC(=O)CS3)n1 |  | active: 29.9 µM |
| COc1cc(OC)c(/C=N/NC(=O)c2ccncc2)c(OC)c1 |  | inconclusive: 9.47 µM [inhibitor, single point] |
| S=C(NCCc1ccccc1)Nc1c(Cl)cccc1Cl |  | active: 26.7 µM |
| O=C(NCCc1ccccc1)c1cc2sccc2n1Cc1ccccc1 |  | inconclusive: 26.7 µM [inhibitor, single point] |
| Cc1ccc(NS(=O)(=O)c2cc(N)ccc2Cl)c(C)c1 |  | active: 23.8 µM |
| CC(=O)N(C)c1nc(-c2ccc(Cl)cc2)cs1 |  | inconclusive: 23.8 µM [inhibitor, single point] |
| Cc1ccc(C(=O)O)cc1-c1ccc(C=C2C(=O)c3ccccc3C2=O)o1 |  | inconclusive: 23.8 µM [inhibitor, partial curve] |
| O=C(N/N=C/c1ccc2c(c1)OCO2)C1CC1 | inactive: -4.27% |  |
| CCN(C(=S)Nc1ccc(Oc2ccccc2)cc1)c1ccccc1 | inactive: -12% |  |
| COc1ccc2nc(-c3ccc(N)cc3)[nH]c2c1 |  | inconclusive: 26.7 µM [inhibitor, single point] |
| CN(C)S(=O)(=O)c1cccc(-c2nnc(SCc3cc(Cl)cc4c3OCOC4)n2N)c1 |  | active: 9.47 µM |
| Cc1nn(C(C)C(=O)N2CCOCC2)c(C)c1[N+](=O)[O-] (configuration not stated) |  | inconclusive: 29.9 µM [inhibitor, single point] |
| CCOc1ccc(N(C(=O)c2snc(C(N)=O)c2N)C(C)C(=O)NC2CCCCC2)cc1 (configuration not stated) | inactive: 5.9% |  |
| CCOC(=O)c1csc(N)c1-c1ccc([N+](=O)[O-])cc1 |  | inconclusive: 21.2 µM [inhibitor, partial curve] |
| O=C(/C=C/c1ccccc1Cl)c1ccccc(=O)c1O |  | active: 26.7 µM |

| SMILES | max response, negative = inhibition | Potency |
| --- | --- | --- |
| Oc1ccc(Br)cc1/C=N/n1c(COc2ccccc2)n[nH]c1=S |  | inconclusive: 21.2 µM [inhibitor, partial curve] |
| COc1ccc(C(c2c(C)[nH][nH]c2=O)c2c(C)[nH][nH]c2=O)cc1Br |  | active: 23.8 µM |
| O=C(CCn1ccc2cc(S(=O)(=O)N3CCCC3)ccc21)NCc1cccc(F)c1 |  | active: 7.52 µM |
| N#C/C(=C\c1ccc(OCc2ccccc2)cc1)C(N)=O |  | active: 9.47 µM |
| O=C(Nc1nc(SCc2ccc(F)cc2)ns1)c1ccco1 |  | inconclusive: 26.7 µM [inhibitor, partial curve] |
| O=c1ccc(-c2ccc(S(=O)(=O)NCC3CCN(Cc4ccccc4F)CC3)s2)n[nH]1 |  | inconclusive: 29.9 µM [inhibitor, partial curve] |
| CN(/N=C/c1ccc(N(C)C)cc1)C1=NS(=O)(=O)c2ccccc21 | inactive: 20.2% |  |
| CCOC(=O)c1c(C)[nH]c(C)c1C(=O)COc1ncnc2ccccc12 |  | active: 11.9 µM |
| O=C(NCC1CCCO1)c1ccccc1NS(=O)(=O)c1ccc(Br)s1 (configuration not stated) |  | active: 23.8 µM |
| Cc1nn(-c2ccccc2)c2sc(C(=O)OCc3nnc(-c4ccccc4)o3)cc12 |  | inconclusive: 23.8 µM [inhibitor, partial curve] |
| CCC(C)(C)NC(=O)c1ccc(S(=O)(=O)N2CCCCCC2)cc1 | inconclusive: -31.8% [inhibitor] |  |
| Oc1ccc(N=Nc2ccccc2-c2nn[nH]n2)c(O)c1 |  | inconclusive: 23.8 µM [inhibitor, single point] |
| COc1cccc(C(=O)SC2=NCCS2)c1 |  | inconclusive: 23.8 µM [inhibitor, partial curve] |
| COc1ccc(N2CCN(C(=O)c3ccc4c(c3)NC(=O)C(CSCc3ccccc3F)N4)CC2)cc1 (configuration not stated) |  | inconclusive: 26.7 µM [inhibitor, partial curve] |
| Cn1ccnc1SCC(=O)Nc1sccc1C#N | inactive: -17.9% |  |
| O=S(=O)(NCCN1CCOCC1)c1ccc(F)c(Cl)c1 |  | active: 3.36 µM |
| Cc1c(N=Nc2c(-c3ccc([N+](=O)[O-])cc3)[nH]n(C(N)=S)c2=O)cccc1[N+](=O)[O-] |  | inconclusive: 23.8 µM [inhibitor, partial curve] |
| Cc1sc2cc3c(c(C(=O)c4ccccc4)[n+]2c1C)-c1cccc2cccc-3c12 |  | inconclusive: 18.9 µM [inhibitor, partial curve] |
| N#CCSc1nnc(COc2ccc3ccccc3c2)o1 |  | inconclusive: 37.7 µM [inhibitor, single point] |
| O=C1N=C(c2ccccc2)S/C1=C\c1cccs1 |  | active: 23.8 µM |
| CC(=O)C1=C(C)Nc2cc(C(F)(F)F)ccc2S1 |  | inconclusive: 37.7 µM [inhibitor, single point] |
| CC1CCCN(C(=O)C(C)Nc2cc(Cl)ccc2N2CCOCC2)C1 (configuration not stated) |  | inconclusive: 23.8 µM [inhibitor, single point] |
| CCOCCCNC(=O)CN(c1cc([N+](=O)[O-])ccc1OC)S(C)(=O)=O |  | inconclusive: 23.8 µM [inhibitor, single point] |
| Cc1ccc(NC(=S)N/N=C2\CC3CC=CC23)c(C)c1 (configuration not stated) |  | inconclusive: 29.9 µM [inhibitor, partial curve] |

| SMILES | max response, negative = inhibition | Potency |
| --- | --- | --- |
| COc1ccc(CNC(=O)C2CCCN(c3ncnc4c3nc3n4CCCCC3)C2)cc1 (configuration not stated) |  | inconclusive: 21.2 µM [inhibitor, single point] |
| CCOC(=O)C(Sc1nnc2c3ccccc3n(CC)c2n1)C(=O)OCC |  | inconclusive: 5.32 µM [inhibitor, full curve] |
| N#CCC(=O)N/N=C/c1c(-c2ccccc2)n(-c2ccccc2)c2ccccc12 |  | inconclusive: 26.7 µM [inhibitor, single point] |
| COc1ccc(CNC(=O)c2cn(Cc3ccc(S(=O)(=O)N(C)C)cc3)c(=O)s2)cc1 | inactive: -9.38% |  |
| N#Cc1ccccc1CN1C(=O)S/C(=C/c2cccn2-c2cccc(C(=O)O)c2)C1=O |  | inconclusive: 23.8 µM [inhibitor, single point] |
| O=C1CSC(=S)N1/N=C/c1ccc2c(c1)OCCO2 |  | inconclusive: 21.2 µM [inhibitor, partial curve] |
| COCCNC(=S)N1CCN(Cc2cccc(OC)c2)CC1 | inactive: 3.15% |  |
| CCCCOc1ccc(Nc2cc(Cl)ccc2C(=O)O)cn1 |  | active: 23.8 µM |
| O=S(=O)(CCNCc1ccccc1)NC1CCCCC1 |  | inconclusive: 16.8 µM [inhibitor, partial curve] |
| CCOc1ccccc1C=C1SC(=S)NC1=O |  | inconclusive: 37.7 µM [inhibitor, single point] |
| CC1(C)Cc2c(sc(NC(=O)C(=O)N3CCCC3)c2C#N)CO1 |  | inconclusive: 29.9 µM [inhibitor, partial curve] |
| CN(C)CCN(Cc1ccco1)C(=O)c1oc2ccccc2c1NC(=O)COc1ccccc1 |  | inconclusive: 26.7 µM [inhibitor, partial curve] |
| COc1ccc(N2CC(C(=O)Nc3cc(C)ccn3)CC2=O)cc1 (configuration not stated) |  | inconclusive: 15 µM [inhibitor, partial curve] |
| Cc1ccc(S(=O)(=O)NCCN2CCOCC2)cc1 |  | inconclusive: 15 µM [inhibitor, partial curve] |
| CCc1[nH]c(=O)[nH]c1C(C)S(=O)(=O)c1ccc(C)cc1 (configuration not stated) |  | active: 11.9 µM |
| CC(=O)C1=C(O)C(=O)N(c2ccc(Br)cc2)C1c1ccccc1[N+](=O)[O-] (configuration not stated) |  | inconclusive: 37.7 µM [inhibitor, partial curve] |
| COc1ccc(CCNC(=O)COC(=O)C23CC4CC(CC(Br)(C4)C2)C3)cc1 | inactive: 0.088% |  |
| COCC(C)N=C1NN=C(c2cccs2)C(CC(=O)O)S1 (configuration not stated) |  | inconclusive: 26.7 µM [inhibitor, single point] |
| O=c1[nH]c2ccc(Cl)cc2c(-c2ccccc2)c1CN1CCOCC1 |  | inconclusive: 37.7 µM [inhibitor, single point] |
| Cc1ccc(NC(=O)c2cc(-c3ccc(C)o3)nc3ccccc23)cc1 |  | inconclusive: 18.9 µM [inhibitor, single point] |
| O=C(CSc1cccc[n+]1[O-])c1ccc(-c2ccccc2)cc1 |  | active: 23.8 µM |
| Clc1ccc(-c2csc(NNC3=NCCCCC3)n2)cc1 |  | inconclusive: 23.8 µM [inhibitor, partial curve] |
| Cc1ccc(-c2nc3c(c(SCC(=O)N4CCOCC4)n2)Cc2c(CO)cnc(C)c2O3)cc1 |  | inconclusive: 23.8 µM [inhibitor, partial curve] |
| CCC(C)(C)NC(=O)C(c1ccccc1Cl)N(C(=O)CCC(=O)Nc1cc(C)on1)C(C)(C)C (configuration not stated) |  | inconclusive: 29.9 µM [inhibitor, partial curve] |

Three of the compounds above, as tab-separated lines:
SMILES	max response, negative = inhibition	Potency
N#Cc1ccccc1CN1C(=O)S/C(=C/c2cccn2-c2cccc(C(=O)O)c2)C1=O		inconclusive: 23.8 µM [inhibitor, single point]
O=c1[nH]c2ccc(Cl)cc2c(-c2ccccc2)c1CN1CCOCC1		inconclusive: 37.7 µM [inhibitor, single point]
Cc1ccc(NC(=O)c2cc(-c3ccc(C)o3)nc3ccccc23)cc1		inconclusive: 18.9 µM [inhibitor, single point]
